Measured values as given in PMC3843746.
These are yes or no findings as the source states them, for the method shown. In cells and extracts the contact can be indirect. Some binding calls cover weakened binding; strength is not graded here.

Protein sequences, listed by entry. Tags and fused reporters are not part of them.
UniProt P33895: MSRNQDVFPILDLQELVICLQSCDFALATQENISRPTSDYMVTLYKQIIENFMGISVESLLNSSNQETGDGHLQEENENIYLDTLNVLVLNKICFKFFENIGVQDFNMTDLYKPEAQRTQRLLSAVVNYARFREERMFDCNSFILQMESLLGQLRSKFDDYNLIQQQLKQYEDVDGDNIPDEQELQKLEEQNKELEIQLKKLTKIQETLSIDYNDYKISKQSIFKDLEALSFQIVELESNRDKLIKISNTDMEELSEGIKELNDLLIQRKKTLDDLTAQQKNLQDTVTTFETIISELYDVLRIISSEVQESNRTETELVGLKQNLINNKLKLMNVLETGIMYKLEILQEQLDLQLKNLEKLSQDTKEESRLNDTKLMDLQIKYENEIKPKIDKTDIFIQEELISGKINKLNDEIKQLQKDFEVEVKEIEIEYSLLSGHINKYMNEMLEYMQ
UniProt P40460: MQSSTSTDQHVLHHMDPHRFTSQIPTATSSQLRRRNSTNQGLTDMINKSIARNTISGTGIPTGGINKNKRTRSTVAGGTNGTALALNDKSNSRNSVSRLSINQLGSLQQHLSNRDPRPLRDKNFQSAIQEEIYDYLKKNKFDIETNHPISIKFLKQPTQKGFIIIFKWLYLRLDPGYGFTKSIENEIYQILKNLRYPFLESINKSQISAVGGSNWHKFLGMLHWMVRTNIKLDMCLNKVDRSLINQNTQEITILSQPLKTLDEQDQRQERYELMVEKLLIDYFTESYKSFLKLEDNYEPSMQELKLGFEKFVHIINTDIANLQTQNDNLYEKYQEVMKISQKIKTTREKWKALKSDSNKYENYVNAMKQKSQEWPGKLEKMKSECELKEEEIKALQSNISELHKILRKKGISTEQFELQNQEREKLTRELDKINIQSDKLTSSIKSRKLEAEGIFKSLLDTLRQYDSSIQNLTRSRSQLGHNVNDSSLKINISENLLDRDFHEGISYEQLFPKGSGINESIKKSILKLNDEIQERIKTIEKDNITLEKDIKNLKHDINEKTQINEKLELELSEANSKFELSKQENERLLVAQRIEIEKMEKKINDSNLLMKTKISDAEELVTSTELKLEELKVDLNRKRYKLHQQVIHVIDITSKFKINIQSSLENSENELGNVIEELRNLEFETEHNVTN

Molecular target: Nuf2 labelled with Venus (Saccharomyces cerevisiae) (UniProt P33895)
Test: FRET or BRET; epifluorescence of live yeast, kinetochore clusters; proximity ratios with mCerulean-Venus as FRET pair at positions equivalent to the GFP-mCherry strains

For “Ndc80 labelled with mCerulean (from UniProt P40460 1-691)”, which binding is on record?
The binding was “binds”.
